System: plasma vWF
Test: plasma vWF in WT mice given tamoxifen
Type: in vivo
Settings: WT mice (n=2); 1 mg per day for 5 days

CC/C(=C(\c1ccccc1)c1ccc(OCCN(C)C)cc1)c1ccccc1 [TX, tamoxifen]
plasma vWF level on day 3: small transient increase | plasma vWF level on day 7, 10, and 14: normalized

From patent publication US9796757B2, “Compositions and method for treating thrombosis” (The Board of Trustees of the University of Illinois, priority 2013, dated 2017)
